Data as given in PubChem BioAssay AID1053208 (Peter MacCallum Cancer Centre, 2014)
Shown is an unselected part of about 17,000 reagents tested. 788 of them (4.7%) count as active. 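Calls rest on z-score classes alone; an extra cut-off of viability at most 70% of control was not applied to them.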 Not all columns of the deposit are shown.

Purpose: 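Synthetic lethal interactions between gene loss and doxorubicin in osteosarcoma cells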 (primary screen)
Cell system: mouse osteosarcoma cells, early-passage culture from an engineered mouse model of fibroblastic bone tumour
Knock-down reagent: siRNA pool against mouse genes, 40 nM
Duration: about 120 h (48 h before drug, then 72 h with drug)
Conditions: doxorubicin 100 nM for 72 h, roughly 30-40% inhibitory dose
Measured: 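Luminescent ATP signal taken as viability with or without 100 nM doxorubicin for 72 h; mean of two wells set against non-targeting siRNA and turned into robust z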
Reading the numbers: viability z-score with doxorubicin: higher = more viable cells under doxorubicin; viability z-score without drug: higher = more viable cells with knock-down alone
Rule for the call: 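Called active if knock-down leaves viability unchanged without drug (z within -2 to 2) but lowers it with doxorubicin (z at or under -2)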

With Tmem101, what does the deposit list?
combined z-score class: no change with or without drug; viability z-score with doxorubicin: 0.79; viability z-score without drug: 0.17; call: inactive

How did the screen score Bnip2?
combined z-score class: no change with or without drug; viability z-score with doxorubicin: 0.67; viability z-score without drug: 1.18; call: inactive

What did the screen give for Asnsd1?
combined z-score class: no change with or without drug; viability z-score with doxorubicin: -0.67; viability z-score without drug: 1.18; call: inactive

With Enox2, how do the results read?
combined z-score class: no change with or without drug; viability z-score with doxorubicin: -0.45; viability z-score without drug: 0.17; call: inactive

For Tmem139, how do the results read?
combined z-score class: no change with or without drug; viability z-score with doxorubicin: 0; viability z-score without drug: -1.85; call: inactive

Which result is listed for Otp?
combined z-score class: low cell count with and without drug; viability z-score with doxorubicin: -3.71; viability z-score without drug: -2.19; call: inactive

For Vmn2r37, what was measured?
combined z-score class: no change with or without drug; viability z-score with doxorubicin: -0.9; viability z-score without drug: -0.84; call: inactive

What is on record for Urod?
combined z-score class: no change with or without drug; viability z-score with doxorubicin: -0.45; viability z-score without drug: -0.17; call: inactive

With Or55b10, what was measured?
combined z-score class: no change with or without drug; viability z-score with doxorubicin: 1.01; viability z-score without drug: 1.35; call: inactive

What did the screen give for Bpifb1?
combined z-score class: no change with or without drug; viability z-score with doxorubicin: 0.79; viability z-score without drug: 0.51; call: inactive

For Traf2, what does the deposit list?
combined z-score class: no change with or without drug; viability z-score with doxorubicin: 0; viability z-score without drug: -0.67; call: inactive

How did the screen score Endov?
combined z-score class: no change with or without drug; viability z-score with doxorubicin: 0.67; viability z-score without drug: -0.51; call: inactive

For A930033H14Rik, how do the results read?
combined z-score class: no change with or without drug; viability z-score with doxorubicin: -1.12; viability z-score without drug: -1.18; call: inactive

What is on record for Rpp14?
combined z-score class: no change with or without drug; viability z-score with doxorubicin: -1.46; viability z-score without drug: -1.52; call: inactive

Which result is listed for Ptk2b?
combined z-score class: no change with or without drug; viability z-score with doxorubicin: -0.67; viability z-score without drug: -1.18; call: inactive

What did the screen give for Rnf222?
combined z-score class: high cell count with doxorubicin only; viability z-score with doxorubicin: 3.48; viability z-score without drug: 1.69; call: inactive

For Slc8a3, what does the deposit list?
combined z-score class: no change with or without drug; viability z-score with doxorubicin: 0.9; viability z-score without drug: -0.17; call: inactive

With Brap, how do the results read?
combined z-score class: no change with or without drug; viability z-score with doxorubicin: 0.9; viability z-score without drug: -0.17; call: inactive

For Cebpz, what was measured?
combined z-score class: no change with or without drug; viability z-score with doxorubicin: -0.22; viability z-score without drug: -1.52; call: inactive

With Pfpl, what was measured?
combined z-score class: low cell count with doxorubicin only; viability z-score with doxorubicin: -2.81; viability z-score without drug: -0.84; call: active

How did the screen score Neurl1b?
combined z-score class: no change with or without drug; viability z-score with doxorubicin: -0.9; viability z-score without drug: -0.17; call: inactive

What is on record for Cbx7?
combined z-score class: no change with or without drug; viability z-score with doxorubicin: 1.01; viability z-score without drug: -0.67; call: inactive

With Grm6, what does the deposit list?
combined z-score class: high cell count with doxorubicin only; viability z-score with doxorubicin: 2.25; viability z-score without drug: -0.67; call: inactive

Which result is listed for C3ar1?
combined z-score class: no change with or without drug; viability z-score with doxorubicin: 0.45; viability z-score without drug: 1.85; call: inactive

For Ptprg, what was measured?
combined z-score class: no change with or without drug; viability z-score with doxorubicin: 0.56; viability z-score without drug: -0.17; call: inactive

For Magea1, what was measured?
combined z-score class: low cell count with doxorubicin only; viability z-score with doxorubicin: -2.02; viability z-score without drug: 0.51; call: active

With Sstr4, what was measured?
combined z-score class: no change with or without drug; viability z-score with doxorubicin: 1.57; viability z-score without drug: -0.17; call: inactive

For Luc7l3, what does the deposit list?
combined z-score class: low cell count with doxorubicin only; viability z-score with doxorubicin: -2.25; viability z-score without drug: -1.01; call: active

Records listed above called active (3):
Pfpl | combined z-score class: low cell count with doxorubicin only; viability z-score with doxorubicin: -2.81; viability z-score without drug: -0.84; call: active
Magea1 | combined z-score class: low cell count with doxorubicin only; viability z-score with doxorubicin: -2.02; viability z-score without drug: 0.51; call: active
Luc7l3 | combined z-score class: low cell count with doxorubicin only; viability z-score with doxorubicin: -2.25; viability z-score without drug: -1.01; call: active
